Source: patent publication CN113667014A
These are yes or no findings as the source states them, for the method shown. Some entries that bind do so weakly or less than the wild type. Sequences can lack the tags named with a protein.

By UniProt entry, the sequences of proteins in these tests, tags left out. Residues count along the entry.
UniProt P02769, residues 25-607: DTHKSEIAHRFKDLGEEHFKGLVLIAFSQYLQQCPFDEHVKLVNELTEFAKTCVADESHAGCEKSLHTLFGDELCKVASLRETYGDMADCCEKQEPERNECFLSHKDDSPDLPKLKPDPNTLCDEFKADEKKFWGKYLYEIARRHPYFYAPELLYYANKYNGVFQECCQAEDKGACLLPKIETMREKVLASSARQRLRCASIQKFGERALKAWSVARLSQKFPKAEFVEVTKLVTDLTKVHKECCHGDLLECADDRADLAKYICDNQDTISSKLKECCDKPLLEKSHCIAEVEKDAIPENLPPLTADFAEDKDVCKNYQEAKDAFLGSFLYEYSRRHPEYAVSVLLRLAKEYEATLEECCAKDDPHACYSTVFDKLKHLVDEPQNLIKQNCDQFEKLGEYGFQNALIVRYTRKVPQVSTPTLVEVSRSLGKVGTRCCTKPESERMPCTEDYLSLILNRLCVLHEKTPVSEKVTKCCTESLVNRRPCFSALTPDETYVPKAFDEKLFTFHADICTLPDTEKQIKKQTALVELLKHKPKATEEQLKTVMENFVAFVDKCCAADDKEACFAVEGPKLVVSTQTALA

Legend:
[1] = target: 牛血清白蛋白(BSA) (牛 (bovine)) (UniProt P02769); test: ELISA on coated BSA (2 ug/mL), nanobody from 2.5 ug/mL in 4-fold dilutions, HRP anti-human IgG secondary
[2] = target: 牛血清白蛋白(BSA) (牛 (bovine)) (UniProt P02769); test: Western blot with the nanobody as primary antibody (Anti-VHH-HRP secondary); depletion of BSA from Vero culture supernatant with nanobody-coupled magnetic beads

| binding [1] | binding [2] | Binder |
| --- | --- | --- |
| binds | binds | 原核表达的抗BSA纳米抗体 Unique 3 (pET28a, GST标签, E. coli BL21(DE3)) (VHH, not shown: a dimerising Fc or GST) VHH: QLQLVESGGGLVQAGGSLRLSCAASGRTFSSYAMGWFRQAPGKERELVAAISRRGGSTYYADSVKGRFTISRDNAKNTVYLQMNSLKPEDTAVYYCNAKSYGSTVRNYWGQGTQVTVSS |
| binds |  | 哺乳系统表达的抗BSA纳米抗体 Unique 3 (pcDNA3.1, 293F细胞) (VHH, not shown: large carriers) VHH: QLQLVESGGGLVQAGGSLRLSCAASGRTFSSYAMGWFRQAPGKERELVAAISRRGGSTYYADSVKGRFTISRDNAKNTVYLQMNSLKPEDTAVYYCNAKSYGSTVRNYWGQGTQVTVSS |
